Experimental findings from publication PMC8665757 are described below.

Chains of the proteins cited; added tags and fusions are not shown. Residues count along the entry.
UniProt P02768, residues 25-609: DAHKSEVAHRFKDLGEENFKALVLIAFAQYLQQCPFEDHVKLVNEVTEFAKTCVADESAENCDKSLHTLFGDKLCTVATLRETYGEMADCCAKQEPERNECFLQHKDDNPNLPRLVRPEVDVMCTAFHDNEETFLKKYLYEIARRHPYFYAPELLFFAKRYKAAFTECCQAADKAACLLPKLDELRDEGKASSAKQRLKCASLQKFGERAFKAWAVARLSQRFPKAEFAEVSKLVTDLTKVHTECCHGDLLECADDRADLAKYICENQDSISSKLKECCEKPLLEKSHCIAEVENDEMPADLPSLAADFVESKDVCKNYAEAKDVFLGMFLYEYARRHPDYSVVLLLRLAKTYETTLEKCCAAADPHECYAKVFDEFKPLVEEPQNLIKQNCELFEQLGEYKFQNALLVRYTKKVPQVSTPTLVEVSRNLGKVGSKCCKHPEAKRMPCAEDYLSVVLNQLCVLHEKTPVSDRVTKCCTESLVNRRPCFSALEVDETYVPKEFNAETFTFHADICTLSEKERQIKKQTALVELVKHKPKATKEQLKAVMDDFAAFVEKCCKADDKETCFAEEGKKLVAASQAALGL

Results are given in words; binding and its absence hold for the method and conditions named. Binding can be weak; no strength is given.

The assay has as its target Streptococcus pyogenes M1 protein (Streptococcus pyogenes) (UniProt Q99XV0). The experiment in a line: cross-linking; chemical cross-linking with tandem MS (MS/MS) of samples from recombinant M1 protein and purified human plasma fibrinogen and albumin; cross-links (XLs) detected with the Cheetah-MS web server; both purified.

In the case of “human plasma albumin (from UniProt P02768 25-609)”, the binding entry is listed as “binds”.
